Laboratory results as given in the supplement of paper PMC12819154, “High-throughput peptide-centric local stability assay extends protein–ligand identification to membrane proteins, tissues and bacteria” (Nature Structural & Molecular Biology, 2025).
This is one part of the list. Most entries show no effect beyond the scatter of the controls.

By UniProt entry, the sequences of proteins in these tests, tags left out. Where a name states a change or a piece, a line headed by the entry shows the natural chain unless it says otherwise.
UniProt Q14657: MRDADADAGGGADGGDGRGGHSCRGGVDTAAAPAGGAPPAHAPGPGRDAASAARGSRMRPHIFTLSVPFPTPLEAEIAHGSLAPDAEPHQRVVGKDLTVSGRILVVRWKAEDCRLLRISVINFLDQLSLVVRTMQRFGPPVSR
UniProt Q15031: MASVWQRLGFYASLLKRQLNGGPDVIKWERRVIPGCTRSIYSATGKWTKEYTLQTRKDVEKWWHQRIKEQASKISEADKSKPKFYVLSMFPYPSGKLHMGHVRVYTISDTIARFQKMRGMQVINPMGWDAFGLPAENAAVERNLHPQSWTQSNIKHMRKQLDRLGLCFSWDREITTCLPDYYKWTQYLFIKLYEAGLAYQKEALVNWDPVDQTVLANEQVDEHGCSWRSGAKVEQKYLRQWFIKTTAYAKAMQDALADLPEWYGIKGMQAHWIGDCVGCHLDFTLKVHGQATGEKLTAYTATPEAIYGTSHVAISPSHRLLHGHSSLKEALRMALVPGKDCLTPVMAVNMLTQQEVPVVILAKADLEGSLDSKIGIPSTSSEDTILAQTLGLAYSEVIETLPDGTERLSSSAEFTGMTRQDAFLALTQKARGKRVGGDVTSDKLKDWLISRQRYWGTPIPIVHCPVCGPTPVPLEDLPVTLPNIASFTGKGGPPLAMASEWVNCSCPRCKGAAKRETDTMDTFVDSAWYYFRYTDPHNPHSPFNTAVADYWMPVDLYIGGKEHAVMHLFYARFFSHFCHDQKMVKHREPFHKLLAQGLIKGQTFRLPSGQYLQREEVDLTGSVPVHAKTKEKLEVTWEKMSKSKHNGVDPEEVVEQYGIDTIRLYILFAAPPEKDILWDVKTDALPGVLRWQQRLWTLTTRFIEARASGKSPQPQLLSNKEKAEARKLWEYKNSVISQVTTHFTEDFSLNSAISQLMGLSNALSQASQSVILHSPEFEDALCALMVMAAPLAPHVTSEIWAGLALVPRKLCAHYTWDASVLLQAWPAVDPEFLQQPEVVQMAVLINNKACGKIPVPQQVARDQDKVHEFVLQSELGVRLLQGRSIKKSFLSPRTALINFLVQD
UniProt Q13867: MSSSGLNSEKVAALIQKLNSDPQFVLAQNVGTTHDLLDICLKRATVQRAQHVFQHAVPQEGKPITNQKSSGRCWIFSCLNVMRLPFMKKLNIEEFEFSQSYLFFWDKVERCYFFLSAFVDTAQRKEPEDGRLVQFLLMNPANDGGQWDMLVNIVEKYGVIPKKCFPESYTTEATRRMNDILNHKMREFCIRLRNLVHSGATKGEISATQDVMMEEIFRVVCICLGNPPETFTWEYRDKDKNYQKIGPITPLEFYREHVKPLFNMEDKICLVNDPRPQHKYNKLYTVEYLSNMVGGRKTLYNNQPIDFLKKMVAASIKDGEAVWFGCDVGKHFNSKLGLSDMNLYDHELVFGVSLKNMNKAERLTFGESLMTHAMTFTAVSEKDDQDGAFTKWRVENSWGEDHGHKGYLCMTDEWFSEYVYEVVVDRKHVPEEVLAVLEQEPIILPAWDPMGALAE
UniProt Q13409, whole entry: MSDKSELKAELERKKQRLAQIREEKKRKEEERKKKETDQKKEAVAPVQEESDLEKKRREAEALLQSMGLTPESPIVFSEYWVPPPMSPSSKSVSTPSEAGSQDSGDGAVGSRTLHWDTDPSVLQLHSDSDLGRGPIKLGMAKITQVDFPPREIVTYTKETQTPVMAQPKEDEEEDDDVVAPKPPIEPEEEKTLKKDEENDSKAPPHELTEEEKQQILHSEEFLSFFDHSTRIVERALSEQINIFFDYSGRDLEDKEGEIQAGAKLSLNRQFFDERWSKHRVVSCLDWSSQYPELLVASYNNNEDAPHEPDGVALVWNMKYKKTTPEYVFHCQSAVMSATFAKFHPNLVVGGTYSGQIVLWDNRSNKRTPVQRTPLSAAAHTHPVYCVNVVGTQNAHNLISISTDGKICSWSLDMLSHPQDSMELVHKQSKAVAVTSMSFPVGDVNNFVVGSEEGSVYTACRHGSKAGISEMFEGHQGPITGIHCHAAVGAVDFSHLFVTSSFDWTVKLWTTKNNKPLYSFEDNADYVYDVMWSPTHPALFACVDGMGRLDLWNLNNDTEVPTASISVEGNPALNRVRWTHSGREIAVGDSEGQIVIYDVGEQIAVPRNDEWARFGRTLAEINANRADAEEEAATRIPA
UniProt Q13526, whole entry: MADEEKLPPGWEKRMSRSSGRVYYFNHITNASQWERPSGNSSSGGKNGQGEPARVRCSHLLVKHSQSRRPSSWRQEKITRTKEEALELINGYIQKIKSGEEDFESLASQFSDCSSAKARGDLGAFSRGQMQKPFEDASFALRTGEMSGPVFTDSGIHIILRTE
UniProt Q14997: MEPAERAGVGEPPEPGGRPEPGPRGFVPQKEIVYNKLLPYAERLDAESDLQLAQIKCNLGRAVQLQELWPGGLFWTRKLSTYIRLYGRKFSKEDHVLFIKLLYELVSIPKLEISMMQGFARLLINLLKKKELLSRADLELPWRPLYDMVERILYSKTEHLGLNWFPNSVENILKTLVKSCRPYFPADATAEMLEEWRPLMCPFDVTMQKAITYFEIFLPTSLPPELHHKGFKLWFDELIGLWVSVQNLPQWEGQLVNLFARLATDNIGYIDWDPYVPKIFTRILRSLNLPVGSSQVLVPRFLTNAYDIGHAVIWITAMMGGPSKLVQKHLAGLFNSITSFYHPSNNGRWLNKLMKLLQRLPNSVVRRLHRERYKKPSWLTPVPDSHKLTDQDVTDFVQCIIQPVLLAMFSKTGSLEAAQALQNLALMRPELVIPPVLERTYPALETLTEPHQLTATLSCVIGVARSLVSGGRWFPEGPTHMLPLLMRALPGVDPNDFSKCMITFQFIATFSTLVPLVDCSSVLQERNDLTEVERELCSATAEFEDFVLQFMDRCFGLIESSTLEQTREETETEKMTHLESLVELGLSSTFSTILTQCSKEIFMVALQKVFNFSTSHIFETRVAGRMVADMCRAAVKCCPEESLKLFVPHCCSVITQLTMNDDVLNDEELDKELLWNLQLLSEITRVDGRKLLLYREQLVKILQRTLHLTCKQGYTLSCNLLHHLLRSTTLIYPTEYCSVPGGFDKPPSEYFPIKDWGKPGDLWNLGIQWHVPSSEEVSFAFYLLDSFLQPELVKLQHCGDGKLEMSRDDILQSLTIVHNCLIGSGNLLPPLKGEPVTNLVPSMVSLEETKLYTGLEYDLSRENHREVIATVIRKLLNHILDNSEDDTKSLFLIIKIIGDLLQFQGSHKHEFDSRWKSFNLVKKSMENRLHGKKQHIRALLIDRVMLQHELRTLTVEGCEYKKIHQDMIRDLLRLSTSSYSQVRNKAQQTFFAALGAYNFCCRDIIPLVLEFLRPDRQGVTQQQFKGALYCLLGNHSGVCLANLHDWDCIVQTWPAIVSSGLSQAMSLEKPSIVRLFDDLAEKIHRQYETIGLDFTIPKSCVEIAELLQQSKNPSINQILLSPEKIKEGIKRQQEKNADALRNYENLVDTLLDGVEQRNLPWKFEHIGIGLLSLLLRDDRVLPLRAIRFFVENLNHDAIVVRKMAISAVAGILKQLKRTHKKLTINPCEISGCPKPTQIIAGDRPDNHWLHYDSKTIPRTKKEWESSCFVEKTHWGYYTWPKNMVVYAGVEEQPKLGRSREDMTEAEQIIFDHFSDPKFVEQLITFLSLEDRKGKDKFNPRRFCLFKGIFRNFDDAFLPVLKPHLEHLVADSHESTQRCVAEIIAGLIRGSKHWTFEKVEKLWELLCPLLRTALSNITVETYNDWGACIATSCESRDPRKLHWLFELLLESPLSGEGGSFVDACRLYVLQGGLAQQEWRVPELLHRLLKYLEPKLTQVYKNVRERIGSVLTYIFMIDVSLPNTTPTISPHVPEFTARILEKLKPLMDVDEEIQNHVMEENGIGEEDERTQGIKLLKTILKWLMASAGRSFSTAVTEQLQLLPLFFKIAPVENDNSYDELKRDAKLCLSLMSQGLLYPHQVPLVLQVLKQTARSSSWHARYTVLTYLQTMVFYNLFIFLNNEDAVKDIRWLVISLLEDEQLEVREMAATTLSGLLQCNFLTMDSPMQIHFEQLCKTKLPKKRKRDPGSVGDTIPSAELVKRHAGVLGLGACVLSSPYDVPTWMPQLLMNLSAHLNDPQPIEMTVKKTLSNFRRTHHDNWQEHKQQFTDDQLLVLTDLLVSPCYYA
UniProt Q14674: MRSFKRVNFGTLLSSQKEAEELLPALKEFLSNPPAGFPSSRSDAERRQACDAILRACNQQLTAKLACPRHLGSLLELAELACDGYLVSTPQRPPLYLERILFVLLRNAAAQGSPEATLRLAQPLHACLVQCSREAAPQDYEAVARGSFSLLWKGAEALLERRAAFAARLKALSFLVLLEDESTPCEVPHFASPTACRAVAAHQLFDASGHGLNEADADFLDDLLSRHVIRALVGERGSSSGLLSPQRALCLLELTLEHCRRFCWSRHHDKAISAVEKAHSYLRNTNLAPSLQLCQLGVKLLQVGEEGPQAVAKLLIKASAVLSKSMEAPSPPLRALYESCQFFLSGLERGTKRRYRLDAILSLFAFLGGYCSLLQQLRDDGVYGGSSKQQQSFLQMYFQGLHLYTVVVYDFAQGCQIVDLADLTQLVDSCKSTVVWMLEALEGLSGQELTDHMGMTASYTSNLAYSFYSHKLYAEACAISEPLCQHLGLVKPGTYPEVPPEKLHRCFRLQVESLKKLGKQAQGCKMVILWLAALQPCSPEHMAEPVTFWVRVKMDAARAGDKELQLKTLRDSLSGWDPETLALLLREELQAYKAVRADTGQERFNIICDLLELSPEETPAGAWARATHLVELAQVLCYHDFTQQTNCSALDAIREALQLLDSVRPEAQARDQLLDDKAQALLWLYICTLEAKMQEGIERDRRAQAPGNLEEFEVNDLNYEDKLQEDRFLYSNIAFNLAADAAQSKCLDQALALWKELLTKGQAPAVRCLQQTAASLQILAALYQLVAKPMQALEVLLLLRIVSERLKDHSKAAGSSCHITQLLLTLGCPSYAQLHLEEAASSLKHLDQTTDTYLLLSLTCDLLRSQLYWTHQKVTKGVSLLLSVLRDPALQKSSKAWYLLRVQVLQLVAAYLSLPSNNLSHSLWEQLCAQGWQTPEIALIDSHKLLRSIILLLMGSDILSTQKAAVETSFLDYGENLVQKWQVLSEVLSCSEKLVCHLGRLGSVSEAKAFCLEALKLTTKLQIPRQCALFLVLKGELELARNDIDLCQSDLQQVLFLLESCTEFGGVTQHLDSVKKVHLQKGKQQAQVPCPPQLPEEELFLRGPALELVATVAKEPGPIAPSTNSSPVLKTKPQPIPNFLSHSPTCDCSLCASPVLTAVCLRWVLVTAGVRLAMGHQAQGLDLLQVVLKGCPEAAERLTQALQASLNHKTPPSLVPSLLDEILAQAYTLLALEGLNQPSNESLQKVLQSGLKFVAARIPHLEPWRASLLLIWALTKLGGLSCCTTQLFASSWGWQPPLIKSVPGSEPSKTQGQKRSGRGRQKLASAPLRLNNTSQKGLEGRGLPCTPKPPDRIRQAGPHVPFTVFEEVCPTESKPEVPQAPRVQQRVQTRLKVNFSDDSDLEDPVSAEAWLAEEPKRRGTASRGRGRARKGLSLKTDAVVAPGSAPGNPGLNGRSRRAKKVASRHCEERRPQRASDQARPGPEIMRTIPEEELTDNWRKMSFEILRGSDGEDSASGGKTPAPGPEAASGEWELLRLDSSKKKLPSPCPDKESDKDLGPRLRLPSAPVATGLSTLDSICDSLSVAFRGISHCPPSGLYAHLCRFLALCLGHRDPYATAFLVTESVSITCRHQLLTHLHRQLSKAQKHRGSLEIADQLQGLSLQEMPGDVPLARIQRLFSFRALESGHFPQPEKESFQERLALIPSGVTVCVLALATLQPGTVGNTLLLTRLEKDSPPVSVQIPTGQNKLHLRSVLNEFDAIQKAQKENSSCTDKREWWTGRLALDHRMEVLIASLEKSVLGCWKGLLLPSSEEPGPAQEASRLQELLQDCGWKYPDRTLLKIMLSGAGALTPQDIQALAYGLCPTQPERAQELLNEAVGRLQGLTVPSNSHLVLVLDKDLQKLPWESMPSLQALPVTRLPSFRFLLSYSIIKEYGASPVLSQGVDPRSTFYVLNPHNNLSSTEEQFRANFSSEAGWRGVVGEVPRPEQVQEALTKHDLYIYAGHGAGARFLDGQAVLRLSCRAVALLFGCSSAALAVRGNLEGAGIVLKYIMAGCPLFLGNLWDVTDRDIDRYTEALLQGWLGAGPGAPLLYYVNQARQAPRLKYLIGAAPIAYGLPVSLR
UniProt Q13242, whole entry: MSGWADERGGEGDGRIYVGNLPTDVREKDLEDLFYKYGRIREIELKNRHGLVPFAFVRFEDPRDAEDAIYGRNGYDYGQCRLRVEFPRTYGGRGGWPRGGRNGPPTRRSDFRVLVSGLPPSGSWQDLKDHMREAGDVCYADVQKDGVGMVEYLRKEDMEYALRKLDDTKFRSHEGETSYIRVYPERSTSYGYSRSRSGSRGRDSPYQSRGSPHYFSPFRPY

What follows are targets tested with CN[C@@H]1C[C@H]2O[C@@](C)([C@@H]1OC)n1c3ccccc3c3c4c(c5c6ccccc6n2c5c31)C(=O)NC4 [staurosporine] (assay: log2 fold change of tryptic peptide abundance, ligand vs vehicle (limited proteolysis) (log2 ratio); higher = more trypsin-susceptible (destabilized)). Settings: ligand concentration: 20 uM; sample: K562 cleared lysate; digestion: 4 min, 22 C (HT-PELSA RT4min, Orbitrap Astral).

Target | log2 fold change
UniProt Q13885 (peptide sequence: YLTVAAIFR, peptide start residue: 310) | -0.124
MTMR2 (peptide sequence: VASFRSRGR, peptide start residue: 258) (UniProt Q13614) | 0.241
LAGE3 (peptide sequence: GGVDTAAAPAGGAPPAHAPGPGR, peptide start residue: 25) (UniProt Q14657) | -0.0488
LARS2 (peptide sequence: TALINFLVQD, peptide start residue: 894) (UniProt Q15031) | -0.169
LPIN1 (peptide sequence: QVGVSLNR, peptide start residue: 810) (UniProt Q14693) | 0.299
UBXN2B (peptide sequence: EHGAVPLNEATR, peptide start residue: 94) (UniProt Q14CS0) | 0.239
UniProt Q13724 (peptide sequence: GFLWDEGFHQLVVQR, peptide start residue: 447) | 0.199
RAB32 (peptide sequence: VHLPNGSPIPAVLLANK, peptide start residue: 128) (UniProt Q13637) | 0.663
BLMH (peptide sequence: KTLYNNQPIDFLKK, peptide start residue: 297) (UniProt Q13867) | 0.349
UniProt Q15046 (peptide sequence: INMVEELEK, peptide start residue: 394) | 0.4
TRIM28 (peptide sequence: FQWDLNAWTK, peptide start residue: 391) (UniProt Q13263) | -0.122
SLC39A14 (peptide sequence: DQEEGVMEK, peptide start residue: 268) (UniProt Q15043) | -0.192
SELENBP1 (peptide sequence: IYVVDVGSEPR, peptide start residue: 104) (UniProt Q13228) | -0.334
GIT2 (peptide sequence: QQGSSLSGSKDNVELILK, peptide start residue: 357) (UniProt Q14161) | 0.408
DYNC1I2 (peptide sequence: EAVAPVQEESDLEKK, peptide start residue: 42) (UniProt Q13409) | -0.0904
TUBB3 (peptide sequence: LATPTYGDLNHLVSATMSGVTTSLR, peptide start residue: 217) (UniProt Q13509) | 0.303
PIN1 (peptide sequence: TGEMSGPVFTDSGIHIILR, peptide start residue: 143) (UniProt Q13526) | -0.395
MTX1 (peptide sequence: YNADYDLSAR, peptide start residue: 228) (UniProt Q13505) | 0.435
CUL4A (peptide sequence: EVPEYLNHVSKR, peptide start residue: 255) (UniProt Q13619) | 0.55
UniProt Q14129 (peptide sequence: VADQQSTLEK, peptide start residue: 149) | -0.404
PSME4 (peptide sequence: ALPGVDPNDFSK, peptide start residue: 488) (UniProt Q14997) | 0.441
ESPL1 (peptide sequence: ALCLLELTLEHCRR, peptide start residue: 248) (UniProt Q14674) | 0.374
RCN2 (peptide sequence: EALLGVQEDVDEYVKLGHEEQQK, peptide start residue: 42) (UniProt Q14257) | -0.979
SNX1 (peptide sequence: LHAVVETLVNHRK, peptide start residue: 326) (UniProt Q13596) | 0.188
UniProt Q13242 (peptide sequence: GRDSPYQSR, peptide start residue: 201) | 0.579
BIRC2 (peptide sequence: TQIPLQAR, peptide start residue: 500) (UniProt Q13490) | 0.465
NOLC1 (peptide sequence: GGSISVQVNSIK, peptide start residue: 684) (UniProt Q14978) | 0.331
UniProt Q13155 (peptide sequence: VLSTVHTHSSVK, peptide start residue: 148) | -0.641

Part of the list above, as tab-separated lines:
Target	log2 fold change
TRIM28 (peptide sequence: FQWDLNAWTK, peptide start residue: 391) (UniProt Q13263)	-0.122
TUBB3 (peptide sequence: LATPTYGDLNHLVSATMSGVTTSLR, peptide start residue: 217) (UniProt Q13509)	0.303
